Data from PubChem BioAssay AID588590 (National Center for Advancing Translational Sciences (NCATS), 2011).
Hit rate of the full screen: of about 390,000 compounds, about 4,000 (1%) were called active. Inconclusive results, whose numbers are uncertain, are shown with a selection of clear calls. Calls follow the shape of the dose curve; as a rule, active = well fitted inhibition curve with a large enough effect; inconclusive = small, poorly fitted or top-dose-only effect, or another doubt; inactive = no such curve, though single readings can be large or run the other way. A potency beside an inconclusive call is a rough fit, not a confirmed value.

Chains of the proteins cited; added tags and fusions are not shown. Lines headed by an entry give the natural chain unless they say otherwise; changes in a name come on top.
UniProt Q9UNA4: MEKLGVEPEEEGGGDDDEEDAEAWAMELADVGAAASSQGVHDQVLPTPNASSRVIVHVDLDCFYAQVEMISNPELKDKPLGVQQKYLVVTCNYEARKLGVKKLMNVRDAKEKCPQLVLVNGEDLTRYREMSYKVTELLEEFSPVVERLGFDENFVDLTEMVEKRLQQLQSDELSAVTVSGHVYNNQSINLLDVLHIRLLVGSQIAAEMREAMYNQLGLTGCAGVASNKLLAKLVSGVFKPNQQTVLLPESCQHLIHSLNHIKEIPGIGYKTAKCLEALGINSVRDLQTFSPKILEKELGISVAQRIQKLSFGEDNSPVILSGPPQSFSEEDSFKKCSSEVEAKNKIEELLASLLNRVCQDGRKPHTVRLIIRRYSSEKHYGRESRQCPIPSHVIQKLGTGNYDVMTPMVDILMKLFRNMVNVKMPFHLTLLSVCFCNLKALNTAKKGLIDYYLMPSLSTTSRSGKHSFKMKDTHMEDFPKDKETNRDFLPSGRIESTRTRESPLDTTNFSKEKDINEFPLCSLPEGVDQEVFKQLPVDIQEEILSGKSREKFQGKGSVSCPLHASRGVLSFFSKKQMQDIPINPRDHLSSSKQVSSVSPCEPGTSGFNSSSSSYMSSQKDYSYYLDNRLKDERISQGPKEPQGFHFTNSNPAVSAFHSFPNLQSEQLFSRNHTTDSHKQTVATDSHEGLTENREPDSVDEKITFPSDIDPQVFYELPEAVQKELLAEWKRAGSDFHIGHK

Each molecule was assayed against DNA polymerase iota (Homo sapiens) (UniProt Q9UNA4) (assay: qHTS for Inhibitors of Polymerase Iota). Settings: Pol iota fluorescent replication assay, 10 min; series mostly up to 115 µM.
How it was run: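 Fluorescent replication assay read twice, at 0 min and 10 min after adding 50 nM (final) substrate. Enzyme (10 nM) and compounds were first incubated 15 min at room temperature; enzyme-free buffer wells were negative controls.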
Potency is read from the fitted curve at half-maximal effect.

| Structure (SMILES) | Potency |
| --- | --- |
| COC(=O)c1cc(C(=O)c2c(C)cc3ccccn23)cc([N+](=O)[O-])c1 | inconclusive: 79.4 µM [inhibitor, partial curve, poor fit] |
| O=C(NCc1ccccc1)c1cccc(COc2ccc3c(c2)CCC3)c1 | inactive |
| CC(=C/C(=O)O)/C=C/c1ccc(Cl)o1 | active: 7.94 µM |
| Cc1ccccc1C(=O)N1CCN(c2ccc(NC(=O)c3ccccc3[N+](=O)[O-])cc2)CC1 | inconclusive: 25.1 µM [inhibitor, full curve] |
| O=C(NN=C1CCCC1)c1cc(O)cc(O)c1 | active: 35.5 µM |
| O=C(Nc1sc2c(c1C(=O)O)CCC2)c1cccs1 | inconclusive: 89.1 µM [inhibitor, partial curve, poor fit] |
| COC(=O)c1cc2oc(C)cc2n1Cc1ccc(Br)cc1F | inactive |
| Cc1cc(C)c(C#N)c(SCc2cn3ccccc3n2)n1 | inconclusive: 100 µM [inhibitor, single point] |
| CCc1ccc(OCc2nnc(-c3ccccc3Br)o2)cc1 | inactive |
| Nc1cccc2c1C(=O)N(C(=O)/C=C/c1cccc(F)c1)C2=O | inconclusive: 15.8 µM [inhibitor, partial curve, poor fit] |
| Cc1nnc(SCC(=O)c2cc(C)n(C3CC3)c2C)s1 | inactive |
| Cc1ccc(NC(=O)c2c(C(F)(F)F)nn(C)c2SCc2ccc(Cl)cc2)cc1C | inconclusive: 89.1 µM [inhibitor, single point] |
| COc1ccc(/C=C/c2cnccn2)cc1OC | inactive |
| CCCCCc1cc(=O)oc2c(C(CCN3CCCCC3)c3ccc(OC)cc3)c(OC)cc(OC)c12 (stereo not drawn) | inconclusive: 25.1 µM [inhibitor, single point] |
| CC(C)C[C@@H](CNCC(=O)[C@H](C)NC(=O)c1[nH]cnc1C(=O)N[C@@H](C)CN)NC(=O)c1nc[nH]c1C(=O)N[C@@H](C)C(=O)O | inconclusive: 31.6 µM [inhibitor, partial curve, poor fit] |
| COCc1nnc(NC(=O)C2CCN(C(=O)c3ccccc3)CC2)s1 | inconclusive: 89.1 µM [inhibitor, single point] |
| O=C(COC(=O)c1cccs1)c1ccccc1 | inconclusive: 28.2 µM [inhibitor, single point] |
| Cc1coc2cc3oc(=O)c(CC(=O)N(C)CC(=O)O)c(C)c3cc12 | inactive |
| CC1=C(C(=O)OCc2ccccc2)C(c2ccsc2)NC(=O)N1C (stereo not drawn) | inconclusive: 28.2 µM [inhibitor, full curve, poor fit] |
| COC(=O)CCC(=O)OC1(C)C(=O)C=C2C=C(C3CC3)N(CCCOC(C)C)C=C2C1=O (stereo not drawn) | inconclusive: 14.1 µM [inhibitor, partial curve, poor fit] |
| COc1ccc(-c2nnc(Nc3ccc(S(=O)(=O)Nc4nccs4)cc3)c3ccccc23)cc1 | active: 20 µM |
| COC(=O)c1ccc2c(c1)NC(=O)C(N1CCCC1)S2 (stereo not drawn) | inconclusive: 70.8 µM [inhibitor, single point] |
| Cc1ccc(-c2nnn3c2nc(NCC(C)c2ccccc2)c2ccccc23)cc1 (stereo not drawn) | inactive |

Quoted at random: 2 records from the list.

| Structure (SMILES) | Potency |
| --- | --- |
| O=C(COC(=O)c1cccs1)c1ccccc1 | inconclusive: 28.2 µM [inhibitor, single point] |
| COC(=O)CCC(=O)OC1(C)C(=O)C=C2C=C(C3CC3)N(CCCOC(C)C)C=C2C1=O (stereo not drawn) | inconclusive: 14.1 µM [inhibitor, partial curve, poor fit] |

Next structures:

| Structure (SMILES) | Potency |
| --- | --- |
| O=C(CNS(=O)(=O)c1c(Cl)cccc1Cl)OCC(=O)c1ccc[nH]1 | active: 15.8 µM |
| COCCCNC(=O)C[C@H]1C[C@H](C(=O)N(C(C)C)C(C)C)[C@@]2(C)c3[nH]c4cc(-c5ccco5)ccc4c3CCN2C1=O | inconclusive: 50.1 µM [inhibitor, partial curve, poor fit] |
| Cc1cc(OCC(=O)OCC(=O)N2CCc3ccccc32)ccc1Cl | inactive |
| CSCc1cc(N2CCOCC2)nc(SCc2ccc(Cl)c(Cl)c2)n1 | inconclusive: 28.2 µM [inhibitor, partial curve, poor fit] |
| CCOC(=O)C(O)(NC(=O)c1cccnc1)C(F)(F)F (stereo not drawn) | inactive |
| O=c1[nH]c(/C=C\c2cccnc2)c([N+](=O)[O-])c(=O)[nH]1 | inactive |
| CCCOc1ccc(C(=O)Nc2ccc(NC(=O)c3ccccc3)c(Br)c2)cc1 | inactive |
| CCCN=C1N(CC)C[C@@H]2[C@@H]3C(=O)N(C)C(=O)[C@@H]3[C@](Cc3ccccc3)(C(=O)OC)N12 | inconclusive: 25.1 µM [inhibitor, full curve, poor fit] |
| CCOc1cc(C(=O)OCC(=O)NCc2ccco2)cc(OCC)c1OCC | inconclusive: 14.1 µM [inhibitor, partial curve, poor fit] |
| O=C(Nc1cccc2[nH]ncc12)NS(=O)(=O)c1ccccc1 | inconclusive: 3.55 µM [inhibitor, full curve] |
| CCOC(=O)C1CCN(C(c2cccc(OC)c2)c2sc3nc(C)nn3c2O)CC1 (stereo not drawn) | inconclusive: 1 µM [inhibitor, partial curve, poor fit] |
| O=C(N/N=C/c1ccco1)C1CCCC1 | inconclusive: 44.7 µM [inhibitor, partial curve, poor fit] |
| Cc1ccc2nc(NC(=O)c3cccc(-c4cc5ccccc5oc4=O)c3)sc2c1 | inconclusive: 89.1 µM [inhibitor, partial curve, poor fit] |
| Cc1ccc(S(=O)(=O)Nc2ccccc2C(O)c2ccccc2)cc1 (stereo not drawn) | inactive |
| Cc1ccc(NC(=O)Nc2nnc(-c3ccncc3)s2)cc1C | active: 22.4 µM |
| CC(=O)Nc1ccc(S(=O)(=O)NCCc2cn3ccsc3n2)cc1 | inactive |
| COC(=O)c1cc(S(=O)(=O)C(C)C)c(S(C)=O)s1 (stereo not drawn) | inactive |
| COC(=O)Nc1ccc(S(=O)(=O)N(CCO)CCO)cc1 | inconclusive: 0.708 µM [inhibitor, full curve, poor fit] |
| Cn1c(SCC(=O)Nc2ccc(N3CCOCC3)cc2)nnc1-c1ccccc1 | inconclusive: 112 µM [inhibitor, partial curve, poor fit] |
| CCn1c(=S)[nH]c2c(=O)n(C)c(=O)n(C)c21 | inconclusive: 17.8 µM [inhibitor, partial curve, poor fit] |
| COC(=O)c1ccc(C2c3c(-c4ccccc4O)n[nH]c3C(=O)N2Cc2ccncc2)cc1 (stereo not drawn) | inactive |
| COc1ccc(-c2cc(C)no2)cc1S(=O)(=O)NCc1cccs1 | inactive |
| Cc1nc(C)c(C(=O)N/N=C/c2cn(C)c3ccccc23)s1 | inconclusive: 89.1 µM [inhibitor, single point] |

Filtered by structure: the entries above containing a nitro group on carbon

| Structure (SMILES) | Potency |
| --- | --- |
| COC(=O)c1cc(C(=O)c2c(C)cc3ccccn23)cc([N+](=O)[O-])c1 | inconclusive: 79.4 µM [inhibitor, partial curve, poor fit] |
| Cc1ccccc1C(=O)N1CCN(c2ccc(NC(=O)c3ccccc3[N+](=O)[O-])cc2)CC1 | inconclusive: 25.1 µM [inhibitor, full curve] |
| O=c1[nH]c(/C=C\c2cccnc2)c([N+](=O)[O-])c(=O)[nH]1 | inactive |

Continuation:

| Structure (SMILES) | Potency |
| --- | --- |
| CCc1ccc(-n2c(=O)c3sc4ccccc4c3n(CC(=O)N3CCCC3)c2=O)cc1 | inactive |
| O=C(O)C1C2C=CC(C2)C1C(=O)NCc1ccc2c(c1)OCO2 (stereo not drawn) | inconclusive: 100 µM [inhibitor, partial curve, poor fit] |
| CN(C)/C=C/C=C1C(=O)CCCC1=O | active: 1.12 µM |
| COc1cc(/C=N/NC(=O)C2CCN(CC(O)COCc3ccccc3)CC2)ccc1O (stereo not drawn) | inconclusive: 39.8 µM [inhibitor, single point] |
| C=C1C(=O)[C@@]23[C@H](O)C[C@@H]4C(C)(C)CC[C@H](O)[C@@]4(C)[C@@H]2CC[C@@H]1[C@H]3O | inconclusive: 17.8 µM [inhibitor, partial curve, poor fit] |
| Cc1nc(C2CCCCC2)c(-c2ccccc2)c(N2CCOC2=O)c1C | inconclusive: 11.2 µM [inhibitor, partial curve, poor fit] |
| CCOC(=O)c1sc2nc(C)n(CC(=O)NCC3CCCO3)c(=O)c2c1C (stereo not drawn) | inconclusive: 44.7 µM [inhibitor, partial curve, poor fit] |
| COc1ccc(OC)c(-c2c3cc(O)c(=O)cc-3oc3cc(O)c(O)cc23)c1 | inconclusive: 3.55 µM [inhibitor, full curve, poor fit] |
| O=C(CSc1nc2ccccc2s1)NCc1cc([N+](=O)[O-])ccc1O | inconclusive: 10 µM [inhibitor, partial curve, poor fit] |
| Cc1ccc(C)c(N2CCN(C3=C(c4ccccc4)C(=O)c4ccccc43)CC2)c1 | inactive |
| O=C(O)c1cc(-c2ccc(/C=N/NC(=S)Nc3ccccc3)o2)ccc1Cl | active: 35.5 µM |
| CC(=O)N1c2c(cc(Br)cc2S(=O)(=O)N2CCN(c3cccc(Cl)c3)CC2)CC1C (stereo not drawn) | inconclusive: 22.4 µM [inhibitor, partial curve, poor fit] |
| COc1cccc(-c2[nH]nc3c2C(c2ccoc2)C(C#N)=C(N)O3)c1 (stereo not drawn) | inconclusive: 35.5 µM [inhibitor, partial curve, poor fit] |
| COc1ccc(Br)cc1CNc1ccc(O)cc1 | active: 2.82 µM |
| O=C(O)c1cnn(-c2nc(-c3ccc(Cl)c(Cl)c3)cs2)c1C(F)(F)F | inconclusive: 22.4 µM [inhibitor, single point] |
| N#Cc1c(-c2ccccc2)[nH]c(=S)[nH]c1=O | inactive |
| CC(C)C(=O)Nc1nnc(-c2ccccc2)o1 | inconclusive: 89.1 µM [inhibitor, single point] |
| Cc1ccc(NC(=O)Cn2nnc(C(=O)NCc3ccc4c(c3)OCO4)c2N)cc1 | inconclusive: 31.6 µM [inhibitor, full curve] |
| O=Cc1ccc(OCc2nnsc2Cl)cc1 | inactive |
| Cn1c(=O)c(NCCc2ccccc2)c2c3c(cccc31)C(=O)c1ccccc1-2 | inconclusive: 39.8 µM [inhibitor, single point] |
| O=C(Nc1ccn(Cc2c(F)c(F)c(F)c(F)c2F)n1)c1cccc(Cn2cc([N+](=O)[O-])cn2)c1 | inconclusive: 22.4 µM [inhibitor, partial curve, poor fit] |
| NC(=O)[C@@H]1CC2(CC(c3cccc(NC(=O)[C@H]4CCC(=O)N4)c3)=NO2)CN1C(=O)c1ccc(Cl)cc1 (stereo partly drawn) | inactive |
